Experimental data as given in US12208181B2, “Medication infusion components and systems” (MEDTRONIC MINIMED, INC., priority 2017, dated 2025).
Entries after “also recorded” stand apart in the source; their conditions may differ. At least one structure is not confirmed: it was looked up by name or label, or the drawing left a doubt.

System: diabetic porcine model
Test: Insulin infusion site-loss study in diabetic porcine model (extended wear infusion set)
Format: in vivo, pig
Protocol: The objectives of this study include duplicating the site-loss phenomena observed in previous studies using a diabetic porcine model. Additionally, various infusion set configurations are evaluated for reducing site-loss and extending infusion set wear. Further, site-loss is mitigated using a response-inhibiting agent and/or infusion pump to increase reliability of wear for 3 days and extend infusion set wear beyond 3 days.
The objectives of this study include: duplicating the site-loss phenomena observed in previous studies using the diabetic porcine model; using the established diabetic porcine model to evaluate the effects of various infusion set designs on infusion site-loss; and testing if site-loss can be mitigated by direct pump infusing of immunosuppressant/anti-inflammatory drugs, and/or by modifying infusion set by drug coating.
This study is designed so that each set (inserted under anesthesia) is to be worn for 1 week unless there was set failure/dislodge. Glucose is monitored by a blood glucose meter and Enlite™ sensor. The criteria for determining site loss is that blood glucose is greater than 350 mg/dl and fails to decrease following an insulin dose correction. During biopsy pumps are removed but the cannula is maintained in-situ. Site skin is examined for edema/erythema (swell/redness) (see FIG. 8).

## CO[C@H]1C[C@@H]2CC[C@@H](C)[C@@](O)(O2)C(=O)C(=O)N2CCCC[C@H]2C(=O)O[C@H]([C@H](C)C[C@@H]2CC[C@@H](O)[C@H](OC)C2)CC(=O)[C@H](C)/C=C(\C)[C@@H](O)[C@@H](OC)C(=O)[C@H](C)C[C@H](C)/C=C/C=C/C=C/1C [rapamycin]
Sof-Set with rapamycin dosed insulin, rapamycin continued to be dosed
  Recovery of infusion site after glucose level increased: infusion site was recovered
Diabetic pigs, agent given with insulin (Humalog) infusion, control without agent
  Effect on site-loss compared with control: performing significantly better than the control
Diabetic porcine model
  Efficacy in extending infusion set wear / site-loss mitigation (in words): showed site-loss mitigation; also recorded: demonstrated the efficacy in extending infusion set wear
